Data reported in US7157239B2, “Method and kit for identifying and/or quantifying radiolabeled aminoglycoside binding molecules” (Applied Research Systems Ars Holding N.V., priority 2001, dated 2007).
For at least one compound, name, drawing or mass did not settle the structure.

Sequences of proteins named here, by UniProt entry; tags and fusion partners are left off. Residues count along the entry.
UniProt P48736, 37-1102 limits assumed: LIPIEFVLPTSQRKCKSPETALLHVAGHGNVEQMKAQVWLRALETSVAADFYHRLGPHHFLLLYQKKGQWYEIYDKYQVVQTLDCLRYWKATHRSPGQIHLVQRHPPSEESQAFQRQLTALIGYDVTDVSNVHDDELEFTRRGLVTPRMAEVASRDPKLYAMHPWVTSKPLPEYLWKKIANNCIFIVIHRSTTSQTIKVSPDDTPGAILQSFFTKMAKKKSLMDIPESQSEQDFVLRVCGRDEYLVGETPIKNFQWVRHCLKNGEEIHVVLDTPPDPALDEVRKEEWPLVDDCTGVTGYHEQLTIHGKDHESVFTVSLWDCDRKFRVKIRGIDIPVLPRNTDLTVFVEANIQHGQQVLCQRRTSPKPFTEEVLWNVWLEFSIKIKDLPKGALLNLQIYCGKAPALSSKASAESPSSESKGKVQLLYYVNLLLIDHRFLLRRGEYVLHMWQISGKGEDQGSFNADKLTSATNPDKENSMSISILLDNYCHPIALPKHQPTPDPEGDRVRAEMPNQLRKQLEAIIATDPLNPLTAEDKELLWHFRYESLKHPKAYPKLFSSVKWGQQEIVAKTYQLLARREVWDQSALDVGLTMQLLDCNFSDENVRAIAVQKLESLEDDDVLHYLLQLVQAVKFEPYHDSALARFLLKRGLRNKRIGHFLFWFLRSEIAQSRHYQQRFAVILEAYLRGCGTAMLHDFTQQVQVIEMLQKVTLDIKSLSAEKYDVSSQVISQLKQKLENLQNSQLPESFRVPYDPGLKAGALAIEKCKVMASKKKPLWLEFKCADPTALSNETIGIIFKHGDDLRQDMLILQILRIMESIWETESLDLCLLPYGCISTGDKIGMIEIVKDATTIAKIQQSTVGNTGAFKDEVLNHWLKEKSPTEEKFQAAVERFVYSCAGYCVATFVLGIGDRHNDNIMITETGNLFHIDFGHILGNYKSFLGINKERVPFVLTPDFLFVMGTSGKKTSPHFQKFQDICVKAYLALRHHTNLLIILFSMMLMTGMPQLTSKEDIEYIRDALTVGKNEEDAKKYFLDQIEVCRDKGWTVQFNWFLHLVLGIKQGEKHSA

Biological target: T1, human recombinant GST-PI3Kγ (Homo sapiens, UniProt P48736)
T1 construct: first 36 amino acids of human PI3Kγ (SWISSPROT Acc. No. P48736), which is expressed starting from the Isoleucine in position 37; made in house; host or cells: Baculovirus/Sf9 insect cells (vector pAcG2T)
Test: PI3Kγ assay using neomycin-coated SPA beads
Format: biochemical
Settings: control, non-specific inhibitor (inhibits mTOR); FIG. 8

`CO[C@H]1C[C@@H]2CC[C@@H](C)[C@@](O)(O2)C(=O)C(=O)N2CCCC[C@H]2C(=O)O[C@H]([C@H](C)C[C@@H]2CC[C@@H](O)[C@H](OC)C2)CC(=O)[C@H](C)/C=C(\C)[C@@H](O)[C@@H](OC)C(=O)[C@H](C)C[C@H](C)/C=C/C=C/C=C/1C` [rapamycin] was tested, and the “effect on PI3Kγ inhibition curve” value was “no noteworthy effect”.
